Reference: the supplement of paper PMC8728848
The other results are listed elsewhere or left out.

Tests used:
Assay in all cases: glycan array binding signal (z-score within array); higher = stronger binding
Settings in all cases: glycan notation: IUPAC condensed, linker removed
[1] = target: Fuc(a1-2)Gal6S(b1-3)GlcNAc
Summary of the method: (§1)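 Glycan array binding is given as a within-array Z-score, which can be read as non-binding when negative. The arrays, 3228 of them, came from the Consortium for Functional Glycomics database and were retained only where the protein sequence was available. Z-scores were averaged across arrays of the same protein sequence at different concentrations or buffers and across linkers.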

[2] = target: Fuc(a1-2)Gal6S(b1-3)GlcNAc6S
Summary of the method: as §1

Fuc(a1-2)Gal6S(b1-4)Glc = target: Fuc(a1-2)Gal6S(b1-4)Glc
Summary of the method: as §1

[3] = target: Fuc(a1-2)Gal6S(b1-4)Glc6S
Summary of the method: as §1

Fuc(a1-2)[Gal(a1-3)]Gal = target: Fuc(a1-2)[Gal(a1-3)]Gal
Summary of the method: as §1

[4] = target: Fuc(a1-2)[Gal(a1-3)]Gal(b1-3)GalNAc
Summary of the method: as §1

[5] = target: Fuc(a1-2)[Gal(a1-3)]Gal(b1-3)GalNAc(b1-3)Gal(a1-4)Gal(b1-4)Glc
Summary of the method: as §1

[6] = target: Fuc(a1-2)[Gal(a1-3)]Gal(b1-3)GlcNAc
Summary of the method: as §1

[7] = target: Fuc(a1-2)[Gal(a1-3)]Gal(b1-3)GlcNAc(b1-2)Man(a1-3)[Fuc(a1-2)[Gal(a1-3)]Gal(b1-3)GlcNAc(b1-2)Man(a1-6)]Man(b1-4)GlcNAc(b1-4)GlcNAc
Summary of the method: as §1

[8] = target: Fuc(a1-2)[Gal(a1-3)]Gal(b1-3)GlcNAc(b1-2)Man(a1-3)[Fuc(a1-2)[Gal(a1-3)]Gal(b1-3)GlcNAc(b1-2)Man(a1-6)]Man(b1-4)GlcNAc(b1-4)[Fuc(a1-6)]GlcNAc
Summary of the method: as §1

[9] = target: Fuc(a1-2)[Gal(a1-3)]Gal(b1-3)GlcNAc(b1-3)GalNAc
Summary of the method: as §1

[10] = target: Fuc(a1-2)[Gal(a1-3)]Gal(b1-3)GlcNAc(b1-6)GalNAc
Summary of the method: as §1

[11] = target: Fuc(a1-2)[Gal(a1-3)]Gal(b1-4)Glc
Summary of the method: as §1

[12] = target: Fuc(a1-2)[Gal(a1-3)]Gal(b1-4)GlcNAc
Summary of the method: as §1

[13] = target: Fuc(a1-2)[Gal(a1-3)]Gal(b1-4)GlcNAc(b1-2)Man
Summary of the method: as §1

[14] = target: Fuc(a1-2)[Gal(a1-3)]Gal(b1-4)GlcNAc(b1-2)Man(a1-3)[Fuc(a1-2)[Gal(a1-3)]Gal(b1-4)GlcNAc(b1-2)Man(a1-6)]Man(b1-4)GlcNAc(b1-4)GlcNAc
Summary of the method: as §1

[15] = target: Fuc(a1-2)[Gal(a1-3)]Gal(b1-4)GlcNAc(b1-2)Man(a1-3)[Fuc(a1-2)[Gal(a1-3)]Gal(b1-4)GlcNAc(b1-2)Man(a1-6)]Man(b1-4)GlcNAc(b1-4)[Fuc(a1-6)]GlcNAc
Summary of the method: as §1

[16] = target: Fuc(a1-2)[Gal(a1-3)]Gal(b1-4)GlcNAc(b1-3)GalNAc
Summary of the method: as §1

[17] = target: Fuc(a1-2)[Gal(a1-3)]Gal(b1-4)GlcNAc(b1-3)[Fuc(a1-2)[Gal(a1-3)]Gal(b1-4)GlcNAc(b1-6)]GalNAc
Summary of the method: as §1

[18] = target: Fuc(a1-2)[Gal(a1-3)]Gal(b1-4)GlcNAc(b1-6)GalNAc
Summary of the method: as §1

[19] = target: Fuc(a1-2)[Gal(a1-3)]Gal(b1-4)[Fuc(a1-3)]Glc
Summary of the method: as §1

[20] = target: Fuc(a1-2)[Gal(a1-3)]Gal(b1-4)[Fuc(a1-3)]GlcNAc
Summary of the method: as §1

[21] = target: Fuc(a1-2)[Gal(a1-3)]Gal(b1-4)[Fuc(a1-3)]GlcNAc(b1-3)GalNAc
Summary of the method: as §1

[22] = target: Fuc(a1-2)[Gal(a1-4)]Gal(b1-4)GlcNAc
Summary of the method: as §1

[23] = target: Fuc(a1-2)[GalNAc(a1-3)]Gal
Summary of the method: as §1

[24] = target: Fuc(a1-2)[GalNAc(a1-3)]Gal(b1-3)GalNAc(a1-3)[Fuc(a1-2)]Gal(b1-4)GlcNAc
Summary of the method: as §1

[25] = target: Fuc(a1-2)[GalNAc(a1-3)]Gal(b1-3)GalNAc(b1-3)Gal(a1-4)Gal(b1-4)Glc
Summary of the method: as §1

[26] = target: Fuc(a1-2)[GalNAc(a1-3)]Gal(b1-3)GlcNAc
Summary of the method: as §1

[27] = target: Fuc(a1-2)[GalNAc(a1-3)]Gal(b1-3)GlcNAc(b1-2)Man(a1-3)[Fuc(a1-2)[GalNAc(a1-3)]Gal(b1-3)GlcNAc(b1-2)Man(a1-6)]Man(b1-4)GlcNAc(b1-4)GlcNAc
Summary of the method: as §1

[28] = target: Fuc(a1-2)[GalNAc(a1-3)]Gal(b1-3)GlcNAc(b1-2)Man(a1-3)[Fuc(a1-2)[GalNAc(a1-3)]Gal(b1-3)GlcNAc(b1-2)Man(a1-6)]Man(b1-4)GlcNAc(b1-4)[Fuc(a1-6)]GlcNAc
Summary of the method: as §1

[29] = target: Fuc(a1-2)[GalNAc(a1-3)]Gal(b1-3)GlcNAc(b1-3)GalNAc
Summary of the method: as §1

[30] = target: Fuc(a1-2)[GalNAc(a1-3)]Gal(b1-3)GlcNAc(b1-6)GalNAc
Summary of the method: as §1

[31] = target: Fuc(a1-2)[GalNAc(a1-3)]Gal(b1-4)Glc
Summary of the method: as §1

[32] = target: Fuc(a1-2)[GalNAc(a1-3)]Gal(b1-4)GlcNAc
Summary of the method: as §1

[33] = target: Fuc(a1-2)[GalNAc(a1-3)]Gal(b1-4)GlcNAc(b1-2)Man
Summary of the method: as §1

[34] = target: Fuc(a1-2)[GalNAc(a1-3)]Gal(b1-4)GlcNAc(b1-2)Man(a1-3)[Fuc(a1-2)[GalNAc(a1-3)]Gal(b1-4)GlcNAc(b1-2)Man(a1-6)]Man(b1-4)GlcNAc(b1-4)GlcNAc
Summary of the method: as §1

[35] = target: Fuc(a1-2)[GalNAc(a1-3)]Gal(b1-4)GlcNAc(b1-2)Man(a1-3)[Fuc(a1-2)[GalNAc(a1-3)]Gal(b1-4)GlcNAc(b1-2)Man(a1-6)]Man(b1-4)GlcNAc(b1-4)[Fuc(a1-6)]GlcNAc
Summary of the method: as §1

[36] = target: Fuc(a1-2)[GalNAc(a1-3)]Gal(b1-4)GlcNAc(b1-3)Gal(b1-4)GlcNAc
Summary of the method: as §1

[37] = target: Fuc(a1-2)[GalNAc(a1-3)]Gal(b1-4)GlcNAc(b1-3)Gal(b1-4)GlcNAc(b1-3)Gal(b1-4)GlcNAc
Summary of the method: as §1

[38] = target: Fuc(a1-2)[GalNAc(a1-3)]Gal(b1-4)GlcNAc(b1-3)GalNAc
Summary of the method: as §1

[39] = target: Fuc(a1-2)[GalNAc(a1-3)]Gal(b1-4)GlcNAc(b1-3)[Fuc(a1-2)[GalNAc(a1-3)]Gal(b1-4)GlcNAc(b1-6)]GalNAc
Summary of the method: as §1

[40] = target: Fuc(a1-2)[GalNAc(a1-3)]Gal(b1-4)GlcNAc(b1-6)GalNAc
Summary of the method: as §1

[41] = target: Fuc(a1-2)[GalNAc(a1-3)]Gal(b1-4)[Fuc(a1-3)]GlcNAc
Summary of the method: as §1

[42] = target: Fuc(a1-2)[GalNAc(a1-3)]Gal(b1-4)[Fuc(a1-3)]GlcNAc(b1-3)GalNAc
Summary of the method: as §1

[43] = target: Fuc(a1-2)[GalNAc(a1-4)]Gal(b1-4)GlcNAc
Summary of the method: as §1

B1: EfCBM33A (Enterococcus faecalis), Q838S1 (protein)
chain: MKKSLLTIVLAFSFVLGGAALAPTVSEAHGYVASPGSRAFFGSSAGGNLNTNVGRAQWEPQSIEAPKNTFITGKLASAGVSGFEPLDEQTATRWHKTNITTGPLDITWNLTAQHRTASWDYYITKNGWNPNQPLDIKNFDKIASIDGKQEVPNKVVKQTINIPTDRKGYHVIYAVWGIGDTVNAFYQAIDVNIQ
glycan array binding signal (z-score) [1]: -0.522
glycan array binding signal (z-score) [2]: 1.01
glycan array binding signal (z-score) (Fuc(a1-2)Gal6S(b1-4)Glc): -0.329
glycan array binding signal (z-score) [3]: 0.347
glycan array binding signal (z-score) (Fuc(a1-2)[Gal(a1-3)]Gal): 0.59
glycan array binding signal (z-score) [4]: 0.401
glycan array binding signal (z-score) [5]: -0.242
glycan array binding signal (z-score) [6]: -0.298
glycan array binding signal (z-score) [7]: -0.46
glycan array binding signal (z-score) [8]: 0.379
glycan array binding signal (z-score) [9]: -0.33
glycan array binding signal (z-score) [10]: -0.352
glycan array binding signal (z-score) [11]: 0.717
glycan array binding signal (z-score) [12]: -0.311
glycan array binding signal (z-score) [13]: -0.036
glycan array binding signal (z-score) [14]: -0.338
glycan array binding signal (z-score) [15]: 0.533
glycan array binding signal (z-score) [16]: -0.661
glycan array binding signal (z-score) [17]: 1.3
glycan array binding signal (z-score) [18]: -0.215
glycan array binding signal (z-score) [19]: -1.02
glycan array binding signal (z-score) [20]: -0.221
glycan array binding signal (z-score) [21]: 0.1
glycan array binding signal (z-score) [22]: 0.016
glycan array binding signal (z-score) [23]: 0.534
glycan array binding signal (z-score) [24]: -1.24
glycan array binding signal (z-score) [25]: -0.121
glycan array binding signal (z-score) [26]: -0.157
glycan array binding signal (z-score) [27]: 0.694
glycan array binding signal (z-score) [28]: -0.255
glycan array binding signal (z-score) [29]: 0.359
glycan array binding signal (z-score) [30]: -0.346
glycan array binding signal (z-score) [31]: 1.38
glycan array binding signal (z-score) [32]: -0.111
glycan array binding signal (z-score) [33]: -0.818
glycan array binding signal (z-score) [34]: 0.341
glycan array binding signal (z-score) [35]: -0.321
glycan array binding signal (z-score) [36]: 0.048
glycan array binding signal (z-score) [37]: -0.566
glycan array binding signal (z-score) [38]: -0.27
glycan array binding signal (z-score) [39]: 0.336
glycan array binding signal (z-score) [40]: -0.679
glycan array binding signal (z-score) [41]: -1.09
glycan array binding signal (z-score) [42]: 0.257
glycan array binding signal (z-score) [43]: 0.039
